Data as given in the supplement of paper PMC10849652.
Some of the results follow.

Sequences of proteins named here, by UniProt entry; tags and fusion partners are left off. A change or cut given only in a name is not applied to a line headed by its entry.
UniProt Q02833: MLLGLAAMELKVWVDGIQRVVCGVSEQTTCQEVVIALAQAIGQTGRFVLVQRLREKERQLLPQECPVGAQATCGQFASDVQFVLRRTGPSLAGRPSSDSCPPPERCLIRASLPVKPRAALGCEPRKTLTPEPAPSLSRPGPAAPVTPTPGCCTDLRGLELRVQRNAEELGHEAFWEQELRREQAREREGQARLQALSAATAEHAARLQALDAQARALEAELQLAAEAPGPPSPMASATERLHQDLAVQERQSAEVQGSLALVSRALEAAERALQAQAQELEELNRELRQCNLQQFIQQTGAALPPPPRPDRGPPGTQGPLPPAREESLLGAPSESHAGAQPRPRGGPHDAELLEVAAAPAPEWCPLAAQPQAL
UniProt Q9Y388: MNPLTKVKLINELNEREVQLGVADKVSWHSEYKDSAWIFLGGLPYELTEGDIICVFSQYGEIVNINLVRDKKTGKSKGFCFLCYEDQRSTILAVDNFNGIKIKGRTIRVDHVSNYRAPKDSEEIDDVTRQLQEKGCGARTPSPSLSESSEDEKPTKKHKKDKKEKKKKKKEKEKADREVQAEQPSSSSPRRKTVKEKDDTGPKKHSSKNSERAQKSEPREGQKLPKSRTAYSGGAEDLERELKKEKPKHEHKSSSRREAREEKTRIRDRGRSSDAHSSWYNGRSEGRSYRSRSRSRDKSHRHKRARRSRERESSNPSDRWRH
UniProt P48378: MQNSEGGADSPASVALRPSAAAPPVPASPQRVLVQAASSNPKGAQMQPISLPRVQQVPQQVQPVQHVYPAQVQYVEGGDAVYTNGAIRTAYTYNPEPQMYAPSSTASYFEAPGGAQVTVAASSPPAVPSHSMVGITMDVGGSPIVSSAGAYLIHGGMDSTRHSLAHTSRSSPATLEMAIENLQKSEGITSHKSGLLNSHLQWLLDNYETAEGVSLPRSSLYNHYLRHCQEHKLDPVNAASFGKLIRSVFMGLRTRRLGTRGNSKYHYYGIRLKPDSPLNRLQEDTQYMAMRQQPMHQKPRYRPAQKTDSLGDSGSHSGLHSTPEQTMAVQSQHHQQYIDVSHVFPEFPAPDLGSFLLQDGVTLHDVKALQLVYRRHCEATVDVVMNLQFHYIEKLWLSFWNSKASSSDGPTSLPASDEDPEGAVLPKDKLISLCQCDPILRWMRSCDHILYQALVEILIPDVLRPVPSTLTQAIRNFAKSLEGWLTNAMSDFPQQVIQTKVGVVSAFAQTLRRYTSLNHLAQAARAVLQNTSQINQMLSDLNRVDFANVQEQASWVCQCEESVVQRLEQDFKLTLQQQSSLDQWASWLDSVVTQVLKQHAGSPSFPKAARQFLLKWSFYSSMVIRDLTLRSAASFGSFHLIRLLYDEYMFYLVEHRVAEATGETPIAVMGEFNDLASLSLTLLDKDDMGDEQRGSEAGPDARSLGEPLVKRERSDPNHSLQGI
UniProt Q5T8P6: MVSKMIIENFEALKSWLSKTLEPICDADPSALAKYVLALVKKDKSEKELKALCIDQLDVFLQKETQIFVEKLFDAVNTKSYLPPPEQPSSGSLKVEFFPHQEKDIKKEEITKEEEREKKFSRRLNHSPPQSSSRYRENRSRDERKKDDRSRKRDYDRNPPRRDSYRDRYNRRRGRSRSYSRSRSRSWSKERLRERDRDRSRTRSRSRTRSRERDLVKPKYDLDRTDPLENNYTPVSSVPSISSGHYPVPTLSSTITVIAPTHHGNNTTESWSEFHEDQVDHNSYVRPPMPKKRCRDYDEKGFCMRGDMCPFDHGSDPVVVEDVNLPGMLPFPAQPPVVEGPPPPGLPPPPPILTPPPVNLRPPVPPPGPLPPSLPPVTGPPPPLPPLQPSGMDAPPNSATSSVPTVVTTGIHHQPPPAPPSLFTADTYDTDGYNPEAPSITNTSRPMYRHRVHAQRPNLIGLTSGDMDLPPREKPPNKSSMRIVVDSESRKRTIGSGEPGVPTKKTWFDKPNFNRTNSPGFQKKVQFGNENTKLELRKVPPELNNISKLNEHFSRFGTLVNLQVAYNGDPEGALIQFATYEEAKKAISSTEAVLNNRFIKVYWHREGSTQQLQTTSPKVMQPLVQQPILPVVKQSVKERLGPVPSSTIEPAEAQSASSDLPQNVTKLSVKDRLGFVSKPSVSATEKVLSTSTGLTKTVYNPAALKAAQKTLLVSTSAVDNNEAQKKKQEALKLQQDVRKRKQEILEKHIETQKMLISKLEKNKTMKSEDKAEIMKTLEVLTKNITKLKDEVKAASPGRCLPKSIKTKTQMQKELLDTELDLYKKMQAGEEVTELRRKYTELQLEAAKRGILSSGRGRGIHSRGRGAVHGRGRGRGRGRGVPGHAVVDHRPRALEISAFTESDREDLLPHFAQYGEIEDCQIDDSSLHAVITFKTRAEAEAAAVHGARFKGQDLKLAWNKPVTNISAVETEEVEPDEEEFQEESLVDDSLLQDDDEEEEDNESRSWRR
UniProt Q09028, whole entry, looked up: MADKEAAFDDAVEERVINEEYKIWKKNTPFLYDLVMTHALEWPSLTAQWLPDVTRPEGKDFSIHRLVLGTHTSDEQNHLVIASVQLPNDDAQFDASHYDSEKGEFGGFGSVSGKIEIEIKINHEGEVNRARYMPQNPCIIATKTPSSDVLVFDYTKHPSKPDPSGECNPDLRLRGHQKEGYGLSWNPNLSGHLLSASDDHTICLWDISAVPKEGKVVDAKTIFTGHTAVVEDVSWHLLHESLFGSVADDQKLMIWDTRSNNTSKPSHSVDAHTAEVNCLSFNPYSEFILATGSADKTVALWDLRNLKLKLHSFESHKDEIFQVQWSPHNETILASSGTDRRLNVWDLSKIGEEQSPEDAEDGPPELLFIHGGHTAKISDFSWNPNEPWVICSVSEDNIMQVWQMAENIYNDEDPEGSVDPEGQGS
UniProt P49795: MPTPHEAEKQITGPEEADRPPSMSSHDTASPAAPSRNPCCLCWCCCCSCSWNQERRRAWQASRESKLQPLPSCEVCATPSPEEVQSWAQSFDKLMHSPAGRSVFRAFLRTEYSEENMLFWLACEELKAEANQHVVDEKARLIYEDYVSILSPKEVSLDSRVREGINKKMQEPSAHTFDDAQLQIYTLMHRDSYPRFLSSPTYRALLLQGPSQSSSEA
UniProt Q16576, whole entry, looked up: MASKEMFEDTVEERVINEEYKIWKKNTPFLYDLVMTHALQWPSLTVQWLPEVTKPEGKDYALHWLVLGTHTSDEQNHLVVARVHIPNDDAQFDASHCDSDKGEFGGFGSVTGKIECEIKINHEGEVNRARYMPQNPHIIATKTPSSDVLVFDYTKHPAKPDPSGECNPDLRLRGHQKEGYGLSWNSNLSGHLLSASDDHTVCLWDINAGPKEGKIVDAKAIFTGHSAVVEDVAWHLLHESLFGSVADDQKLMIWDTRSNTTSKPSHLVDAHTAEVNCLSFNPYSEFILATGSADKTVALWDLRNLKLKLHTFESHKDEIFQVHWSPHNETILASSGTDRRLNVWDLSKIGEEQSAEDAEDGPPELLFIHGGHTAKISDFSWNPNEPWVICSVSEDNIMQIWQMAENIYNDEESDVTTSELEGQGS
UniProt Q8IUH3: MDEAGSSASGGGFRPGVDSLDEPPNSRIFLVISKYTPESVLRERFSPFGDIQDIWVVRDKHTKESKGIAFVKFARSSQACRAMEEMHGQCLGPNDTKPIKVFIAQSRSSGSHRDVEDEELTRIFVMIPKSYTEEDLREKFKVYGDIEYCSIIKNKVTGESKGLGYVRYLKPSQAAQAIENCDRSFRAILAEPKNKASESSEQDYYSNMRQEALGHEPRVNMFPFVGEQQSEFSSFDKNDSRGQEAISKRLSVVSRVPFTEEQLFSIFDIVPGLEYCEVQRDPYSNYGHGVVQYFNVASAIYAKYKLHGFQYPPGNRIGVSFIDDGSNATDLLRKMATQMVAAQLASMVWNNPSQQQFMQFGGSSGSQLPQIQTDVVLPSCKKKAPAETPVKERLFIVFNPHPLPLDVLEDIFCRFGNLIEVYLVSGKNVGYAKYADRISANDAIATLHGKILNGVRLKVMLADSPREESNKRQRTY
UniProt Q86WH2: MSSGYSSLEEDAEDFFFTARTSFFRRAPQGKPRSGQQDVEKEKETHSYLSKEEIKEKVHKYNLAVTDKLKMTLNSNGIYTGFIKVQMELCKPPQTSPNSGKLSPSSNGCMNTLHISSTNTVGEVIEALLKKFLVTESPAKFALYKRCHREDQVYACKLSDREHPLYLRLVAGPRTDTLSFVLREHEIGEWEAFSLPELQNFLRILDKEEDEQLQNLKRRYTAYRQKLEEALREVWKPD
UniProt O75884: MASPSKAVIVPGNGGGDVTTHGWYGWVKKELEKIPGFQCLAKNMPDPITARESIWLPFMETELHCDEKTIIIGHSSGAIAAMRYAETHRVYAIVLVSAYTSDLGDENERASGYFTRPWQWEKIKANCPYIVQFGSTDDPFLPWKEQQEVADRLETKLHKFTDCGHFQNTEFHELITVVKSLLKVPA
UniProt Q96IZ5: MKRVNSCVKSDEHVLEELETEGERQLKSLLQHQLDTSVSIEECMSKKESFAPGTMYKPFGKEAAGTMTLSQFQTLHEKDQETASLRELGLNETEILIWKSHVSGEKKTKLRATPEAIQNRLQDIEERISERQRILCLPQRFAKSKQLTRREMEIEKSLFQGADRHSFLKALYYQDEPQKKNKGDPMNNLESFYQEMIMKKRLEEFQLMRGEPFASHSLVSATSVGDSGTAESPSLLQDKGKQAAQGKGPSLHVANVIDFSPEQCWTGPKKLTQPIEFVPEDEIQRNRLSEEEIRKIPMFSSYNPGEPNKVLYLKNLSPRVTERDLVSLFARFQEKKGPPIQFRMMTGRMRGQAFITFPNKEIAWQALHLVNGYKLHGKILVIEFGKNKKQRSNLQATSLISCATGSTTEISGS
UniProt P48380: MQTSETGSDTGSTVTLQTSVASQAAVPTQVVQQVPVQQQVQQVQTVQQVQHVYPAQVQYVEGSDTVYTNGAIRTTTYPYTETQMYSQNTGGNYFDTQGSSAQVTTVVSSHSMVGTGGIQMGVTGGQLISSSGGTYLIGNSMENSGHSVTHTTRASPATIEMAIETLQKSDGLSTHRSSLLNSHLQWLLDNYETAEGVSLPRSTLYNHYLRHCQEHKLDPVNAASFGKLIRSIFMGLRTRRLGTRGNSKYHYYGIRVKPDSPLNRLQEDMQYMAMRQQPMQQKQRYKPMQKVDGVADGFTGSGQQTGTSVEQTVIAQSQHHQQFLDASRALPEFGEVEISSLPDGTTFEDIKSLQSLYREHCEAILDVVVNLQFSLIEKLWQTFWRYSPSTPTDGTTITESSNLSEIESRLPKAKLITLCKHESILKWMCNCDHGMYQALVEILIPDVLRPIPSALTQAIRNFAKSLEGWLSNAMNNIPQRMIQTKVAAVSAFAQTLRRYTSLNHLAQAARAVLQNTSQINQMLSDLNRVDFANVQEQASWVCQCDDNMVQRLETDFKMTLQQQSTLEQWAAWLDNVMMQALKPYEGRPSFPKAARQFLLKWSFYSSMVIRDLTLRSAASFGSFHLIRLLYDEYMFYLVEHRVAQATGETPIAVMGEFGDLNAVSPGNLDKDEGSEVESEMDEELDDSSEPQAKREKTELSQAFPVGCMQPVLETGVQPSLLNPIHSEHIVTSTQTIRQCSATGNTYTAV
UniProt Q96E39: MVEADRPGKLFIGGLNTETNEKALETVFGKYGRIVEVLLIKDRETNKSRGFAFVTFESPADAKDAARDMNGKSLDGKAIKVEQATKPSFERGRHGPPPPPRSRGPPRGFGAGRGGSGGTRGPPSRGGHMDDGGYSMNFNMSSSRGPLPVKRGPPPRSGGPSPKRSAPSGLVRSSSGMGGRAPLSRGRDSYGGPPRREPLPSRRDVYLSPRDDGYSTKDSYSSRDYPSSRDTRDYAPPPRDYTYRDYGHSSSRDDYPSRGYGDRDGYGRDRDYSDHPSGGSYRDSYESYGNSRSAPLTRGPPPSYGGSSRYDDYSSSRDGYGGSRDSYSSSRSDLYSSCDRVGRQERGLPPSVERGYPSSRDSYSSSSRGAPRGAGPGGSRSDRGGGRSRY
UniProt Q9Y3P4: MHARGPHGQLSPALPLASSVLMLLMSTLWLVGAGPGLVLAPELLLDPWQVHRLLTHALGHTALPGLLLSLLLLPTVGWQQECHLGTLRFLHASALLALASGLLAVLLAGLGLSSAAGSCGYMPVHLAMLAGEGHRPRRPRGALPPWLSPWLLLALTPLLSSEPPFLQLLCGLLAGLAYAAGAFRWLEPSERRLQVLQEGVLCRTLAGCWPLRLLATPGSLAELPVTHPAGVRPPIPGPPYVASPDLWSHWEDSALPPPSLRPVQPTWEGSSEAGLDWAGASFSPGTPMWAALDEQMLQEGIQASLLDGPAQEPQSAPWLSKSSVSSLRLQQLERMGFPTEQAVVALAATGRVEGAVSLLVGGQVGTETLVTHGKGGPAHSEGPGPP

Experiments:
Test in all cases: log2 fold change, soluble protein after heating vs DMSO (PISA); higher = thermal stabilisation; K562 lysate, 10 uM; active = over 0.2 and 3.5 SD of the protein, either way, in both replicates (recomputed)
alvocidib = compound: CN1CC[C@H](c2c(O)cc(O)c3c(=O)cc(-c4ccccc4Cl)oc23)[C@H](O)C1 [alvocidib]
In short: (§1)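 K562 pellets were dounce-homogenised in PBS pH 7.4 containing 1 mM MgCl2, and the crude extract, at 1 mg/mL protein, was exposed to 10 μM compound for 30 min. Aliquots were heated for 3 min across 48°C-58°C, pooled, brought to 0.5% NP-40 at 4°C and spun at 21,000xg for 90 min, with the supernatant taken as soluble protein. TMTpro 16plex LC-MS/MS with equalised channel sums quantified that protein. Values are log-two fold changes in thermal stability relative to solvent controls, taken from duplicates.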

alisertib = compound: COc1cc(Nc2ncc3c(n2)-c2ccc(Cl)cc2C(c2c(F)cccc2OC)=NC3)ccc1C(=O)O [alisertib]
In short: as §1

gefitinib = compound: COc1cc2ncnc(Nc3ccc(F)c(Cl)c3)c2cc1OCCCN1CCOCC1 [gefitinib]
In short: as §1

pictilisib = compound: CS(=O)(=O)N1CCN(Cc2cc3nc(-c4cccc5[nH]ncc45)nc(N4CCOCC4)c3s2)CC1 [pictilisib]
In short: as §1

crizotinib = compound: C[C@@H](Oc1cc(-c2cnn(C3CCNCC3)c2)cnc1N)c1c(Cl)ccc(F)c1Cl [crizotinib]
In short: as §1

[1] = compound: C[C@H](C1=CC=C(C=C1)C(=O)NC2=C3C=CNC3=NC=C2)N
In short: as §1

gandotinib = compound: Cc1cc(Nc2cc(CN3CCOCC3)c3nc(C)c(Cc4ccc(Cl)cc4F)n3n2)n[nH]1 [gandotinib]
In short: as §1

doramapimod = compound: Cc1ccc(-n2nc(C(C)(C)C)cc2NC(=O)Nc2ccc(OCCN3CCOCC3)c3ccccc23)cc1 [doramapimod]
In short: as §1

bafetinib = compound: Cc1ccc(NC(=O)c2ccc(CN3CC[C@H](N(C)C)C3)c(C(F)(F)F)c2)cc1Nc1nccc(-c2cncnc2)n1 [bafetinib]
In short: as §1

[2] = compound: Cc1cccc(CC(=O)N2CCc3c2ccc(-c2cn(C)c4ncnc(N)c24)c3F)n1
In short: as §1

Tubastatin A = compound: CN1CCc2c(c3ccccc3n2Cc2ccc(C(=O)NO)cc2)C1 [Tubastatin A]
In short: as §1

[3] = compound: CNc1nc(-c2ccc3c(N)n[nH]c3c2)cc(N2C[C@@H](C(=O)NC3CCCCC3)CC[C@H]2C)n1
In short: as §1

encorafenib = compound: COC(=O)N[C@@H](C)CNc1nccc(-c2cn(C(C)C)nc2-c2cc(Cl)cc(NS(C)(=O)=O)c2F)n1 [encorafenib]
In short: as §1

[4] = compound: COC(=O)[C@H](CCSC)NC(=O)C1=C(C=C(C=C1)NC[C@H](CS)N)C2=CC=CC=C2
In short: as §1

duvelisib = compound: C[C@H](Nc1ncnc2nc[nH]c12)c1cc2cccc(Cl)c2c(=O)n1-c1ccccc1 [duvelisib]
In short: as §1

tozasertib = compound: Cc1cc(Nc2cc(N3CCN(C)CC3)nc(Sc3ccc(NC(=O)C4CC4)cc3)n2)n[nH]1 [tozasertib]
In short: as §1

[5] = compound: CNC(=O)C1=CC=CC=C1NC2=NC(=NC=C2Cl)NC3=C(C=C(C=C3)N4CCOCC4)OC
In short: as §1

defactinib = compound: CNC(=O)c1ccc(Nc2ncc(C(F)(F)F)c(NCc3nccnc3N(C)S(C)(=O)=O)n2)cc1 [defactinib]
In short: as §1

[6] = compound: COc1cc2nc(-c3cc(F)ccc3O)nc(N[C@@H]3CNC[C@H]3C(C)(C)O)c2cc1OC
In short: as §1

lapatinib = compound: CS(=O)(=O)CCNCc1ccc(-c2ccc3ncnc(Nc4ccc(OCc5cccc(F)c5)c(Cl)c4)c3c2)o1 [lapatinib]
In short: as §1

Measured: log2 fold change

RASSF7 (UniProt Q02833)
inactive: alvocidib 0.027 | alisertib -0.084 | gefitinib 0.089 | pictilisib -0.073 | crizotinib -0.021 | [1] -0.05 | gandotinib -0.055 | doramapimod -0.059 | bafetinib -0.239 | [2] 0.063

RESF1 (UniProt Q9HCM1)
inactive: Tubastatin A -0.016 | [3] -0.048 | encorafenib 0.021 | [4] 0.137 | crizotinib 0.099 | duvelisib -0.001 | tozasertib 0.065 | doramapimod -0.349

RBP4 (UniProt P02753)
inactive: alvocidib -0.085 | pictilisib 0.014 | crizotinib -0.074 | [1] -0.109 | gandotinib 0.146 | doramapimod 0.056 | bafetinib 0.062 | [2] 0.056

RELA (UniProt Q04206)
inactive: Tubastatin A -0.094 | [5] 0.019 | defactinib 0.02 | [3] 0.015 | encorafenib 0.018 | [4] 0.01 | alisertib 0.028 | [6] -0.033 | gefitinib 0.016 | lapatinib 0.007 | pictilisib -0.025 | crizotinib -0.062 | [1] -0.029 | duvelisib 0.016 | gandotinib 0.073 | tozasertib -0.008 | bafetinib -0.064 | [2] 0.062

RBMX2 (UniProt Q9Y388)
inactive: [5] -0.018 | defactinib -0.006 | [3] 0.061 | [6] 0 | lapatinib 0.064 | duvelisib -0.186

RFX2 (UniProt P48378)
inactive: alvocidib -0.107 | [3] -0.088 | [6] 0.124 | lapatinib 0.076 | pictilisib -0.079 | crizotinib -0.061 | [1] -0.024 | duvelisib -0.183 | gandotinib 0.079 | doramapimod -0.014 | bafetinib 0.089 | [2] -0.069

RBBP7 (UniProt C9J7L0)
inactive: alisertib 0.089 | gefitinib -0.058

RBM26 isoform 3 (UniProt Q5T8P6)
inactive: Tubastatin A -0.069 | [5] -0.092 | defactinib -0.05 | [3] -0.007 | encorafenib -0.044 | [4] -0.071 | alisertib 0.073 | [6] 0.128 | gefitinib -0.062 | lapatinib -0.098 | pictilisib -0.016 | crizotinib -0.01 | duvelisib 0.026 | tozasertib -0.105 | doramapimod -0.08 | bafetinib 0.079

RBBP4 isoform 2 (UniProt Q09028)
inactive: [6] -0.003 | lapatinib -0.003 | pictilisib 0.002 | bafetinib -0.06

Two successive entries out of the list so far:
RBBP7 (UniProt C9J7L0)
inactive: alisertib 0.089 | gefitinib -0.058

RBM26 isoform 3 (UniProt Q5T8P6)
inactive: Tubastatin A -0.069 | [5] -0.092 | defactinib -0.05 | [3] -0.007 | encorafenib -0.044 | [4] -0.071 | alisertib 0.073 | [6] 0.128 | gefitinib -0.062 | lapatinib -0.098 | pictilisib -0.016 | crizotinib -0.01 | duvelisib 0.026 | tozasertib -0.105 | doramapimod -0.08 | bafetinib 0.079

Additional records follow:

RGS19 (UniProt P49795)
inactive: alvocidib -0.012 | alisertib -0.005 | gefitinib -0.019 | crizotinib -0.098 | [1] -0.065 | gandotinib 0.028 | doramapimod -0.075 | [2] -0.19

RBBP7 (UniProt Q16576)
inactive: Tubastatin A -0.005 | [5] 0.006 | defactinib -0.018 | [3] -0.125 | encorafenib 0.032 | [4] -0.021 | alisertib 0.014 | [6] -0.003 | gefitinib 0.006 | lapatinib 0.001 | pictilisib 0.007 | crizotinib 0.026 | duvelisib 0.02 | tozasertib 0.073 | doramapimod -0.036 | bafetinib -0.072

RBM45 (UniProt Q8IUH3)
inactive: alvocidib 0.013 | alisertib -0.136 | [6] 0.055 | gefitinib -0.03 | lapatinib -0.12 | crizotinib -0.094 | [1] 0.184 | gandotinib -0.1 | doramapimod 0.014 | [2] 0.077

RASSF3 (UniProt Q86WH2)
inactive: alvocidib 0.024 | [6] 0.094 | lapatinib 0.05 | crizotinib 0.043 | [1] 0.042 | gandotinib 0.085 | doramapimod -0.005 | [2] 0.141

RBBP9 (UniProt O75884)
inactive: Tubastatin A 0.045 | [5] -0.083 | defactinib 0.016 | pictilisib -0.04 | crizotinib -0.068 | doramapimod -0.024 | bafetinib -0.019

RELCH (UniProt Q9P260)
inactive: defactinib -0.121 | [3] -0.113 | [6] 0.092 | lapatinib 0.07 | crizotinib -0.034 | duvelisib 0.15 | doramapimod 0.016

REV3L (UniProt O60673)
inactive: Tubastatin A 0.053 | [5] -0.028 | defactinib -0.051 | [3] 0.312 | encorafenib -0.072 | [4] -0.124 | alisertib 0.039 | [6] 0.247 | gefitinib -0.148 | lapatinib -0.047 | pictilisib -0.089 | crizotinib -0.086 | duvelisib 0.037 | tozasertib -0.315 | doramapimod 0.251 | bafetinib -0.139

RELL1 (UniProt Q8IUW5)
inactive: [5] 0.108 | crizotinib -0.071 | doramapimod -0.067

RBM41 (UniProt Q96IZ5)
inactive: alisertib 0.066 | gefitinib -0.116 | pictilisib -0.133 | bafetinib -0.23

RGPD6 (UniProt H7BZ48)
inactive: crizotinib 0.043 | doramapimod -0.121

RFX3 (UniProt P48380)
inactive: alvocidib 0.036 | [3] 0.122 | encorafenib -0.056 | [4] 0.025 | alisertib -0.309 | gefitinib -0.235 | pictilisib 0.048 | [1] -0.108 | duvelisib 0.041 | gandotinib -0.07 | tozasertib -0.063 | bafetinib -0.011 | [2] 0.146

RBMXL1 (UniProt Q96E39)
inactive: defactinib 0.039 | [3] 0.117 | encorafenib -0.008 | [4] -0.072 | crizotinib 0.016 | duvelisib 0.108 | tozasertib 0.016 | doramapimod 0.084

RHBDD3 (UniProt Q9Y3P4)
inactive: crizotinib 0.144 | doramapimod -0.18
